Laboratory results taken from PubChem BioAssay AID1671190 (National Center for Advancing Translational Sciences (NCATS), 2021).
Out of some 580,000 compounds screened, about 6,100 (1.1%) were called active. Inconclusive means that the source gave no clear call. Such entries were picked first, then a sample of the others. Calls follow the shape of the dose curve; as a rule, active = well fitted inhibition curve with a large enough effect; inconclusive = small, poorly fitted or top-dose-only effect, or another doubt; inactive = no such curve, though single readings can be large or run the other way. Potencies beside an inconclusive call are fits to weak or partial responses and may not hold up.

The chains behind the UniProt entries cited, without tags or fusion partners. Where a name states a change or a piece, a line headed by the entry shows the natural chain unless it says otherwise.
UniProt P18054: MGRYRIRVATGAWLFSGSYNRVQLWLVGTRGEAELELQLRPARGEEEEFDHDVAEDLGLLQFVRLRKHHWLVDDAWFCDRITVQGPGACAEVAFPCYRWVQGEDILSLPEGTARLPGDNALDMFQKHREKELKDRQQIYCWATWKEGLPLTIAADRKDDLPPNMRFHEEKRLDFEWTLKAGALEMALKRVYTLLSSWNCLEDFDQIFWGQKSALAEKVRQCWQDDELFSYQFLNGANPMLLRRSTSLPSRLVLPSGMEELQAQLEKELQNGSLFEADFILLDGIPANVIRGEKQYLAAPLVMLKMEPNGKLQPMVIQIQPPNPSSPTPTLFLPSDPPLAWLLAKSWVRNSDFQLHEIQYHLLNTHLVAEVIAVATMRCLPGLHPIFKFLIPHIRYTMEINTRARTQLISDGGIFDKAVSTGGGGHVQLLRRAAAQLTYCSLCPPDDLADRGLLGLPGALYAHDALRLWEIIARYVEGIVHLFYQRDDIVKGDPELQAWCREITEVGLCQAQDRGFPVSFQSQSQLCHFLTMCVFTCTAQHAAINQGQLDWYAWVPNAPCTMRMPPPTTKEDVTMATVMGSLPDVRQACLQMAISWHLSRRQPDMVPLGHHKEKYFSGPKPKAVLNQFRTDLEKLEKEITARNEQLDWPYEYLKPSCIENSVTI

molecular target: Polyunsaturated fatty acid lipoxygenase ALOX12 (Homo sapiens) (UniProt P18054); test: Primary qHTS assay for inhibitors of human arachidonate 12S-lipoxygenase (ALOX12): Round 2; conditions: purified 12hLO, xylenol orange hydroperoxide absorbance; activity change, negative = inhibition: at 108 µM (top of the series) unless noted
Outline: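 Hydroperoxide product was detected by ferrous iron/xylenol orange as the 573 to 405 nm absorbance ratio. Arachidonic acid at 40 uM (final) was turned over for 30 min at room temperature by 150 nM human 12hLO, pH 7.0 Hepes buffer, after 15 min compound preincubation.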
% is scaled to controls: 0 for no effect and ±100 for the full control effect; potency is read from the fitted curve at half-maximal effect.

SMILES | activity change, negative = inhibition | Potency
OCc1ccccc1NC(=S)Nc1cccnc1 | inactive: 0.718% | –
CCc1c(C)c2c(C)nn(-c3ccccc3)c2oc1=O | – | inconclusive: 63.1 µM [inhibitor, partial curve, poor fit]
CSc1ccc(NC(=O)C(C)N2CCN(C)CC2)cc1 (stereo not drawn) | – | inconclusive: 0.398 µM [inhibitor, full curve, poor fit]
Cc1cccc(Cn2c(=O)n(Cc3ccc(C(=O)NC4CCN(Cc5ccccc5)CC4)cc3)c(=O)c3ccccc32)c1 | inactive: -21.6% | –
COc1ccc(-c2cnc(Nc3cccc(N[S+](C)(=O)[O-])c3)c3c2CCO3)cn1 | inactive: -6.68% [at 176 µM] | –
COc1cc(C(=O)Nc2nc(C)cc(C)n2)cc(OC)c1OC | – | inconclusive: 6.31 µM [inhibitor, partial curve, poor fit]
CCOC(=O)c1cnc2c(C)cc(C)cc2c1Nc1cccc(C(=O)O)c1 | – | inconclusive: 50.1 µM [inhibitor, partial curve, poor fit]
COc1ccccc1N1CCN(CC(O)COc2ccc3c(C)cc(=O)oc3c2)CC1 (stereo not drawn) | inactive: 17.9% | –
CCCC(C)NCC(=O)Nc1ccccc1-c1ccccc1 (stereo not drawn) | – | inconclusive: 0.282 µM [inhibitor, full curve, poor fit]
C#CCNC(=O)[C@@H]1Cc2cn(Cc3c(C)noc3C)c3cccc(c23)[C@H](CC(C)C)N1 | – | inconclusive: 39.8 µM [inhibitor, full curve]
O=C(O)CCC(=O)N1Cc2ccccc2CC2(CCCN2Cc2ccccc2)C1 (stereo not drawn) | – | inconclusive: 15.8 µM [inhibitor, partial curve]
OC(c1ccccc1)(c1nc(-c2cc(F)cc(F)c2)cs1)C(F)(F)F (stereo not drawn) | – | inconclusive: 44.7 µM [inhibitor, partial curve, poor fit]
Cc1ccc(C(CNS(=O)(=O)c2cc(F)ccc2F)N2CCN(C)CC2)cc1 (stereo not drawn) | – | inconclusive: 63.1 µM [inhibitor, partial curve, poor fit]
COc1cccc(CNC(=O)Cn2nc([N+](=O)[O-])c(Br)c2C)c1 | inactive: 22% | –
COc1ccc(C(=O)N2CCCC(c3nc(SCc4ccccn4)ncc3C)C2)cc1F (stereo not drawn) | – | inconclusive: 100 µM [inhibitor, partial curve, poor fit]
CCCCn1c(SCC(=O)Nc2cccc(OC)c2)nc2c(sc3ccccc32)c1=O | – | inconclusive: 39.8 µM [inhibitor, partial curve, poor fit]
CCCNC(=O)N1CC[C@@H](CC(=O)O)[C@@H](CC2=NCCc3cc(OC)ccc32)C1 | – | inconclusive: 22.4 µM [inhibitor, full curve, poor fit]
COc1ccccc1N1CCN(C(=O)C2CCN(S(=O)(=O)c3c(C)noc3/C=C/c3ccc(C)cc3)CC2)CC1 | inactive: -5.47% | –
Cc1ccc(NC2CC(=O)N(c3ccc(N4CCCCC4)cc3)C2=O)cc1 (stereo not drawn) | – | inconclusive: 39.8 µM [inhibitor, partial curve]
COc1ccc2c(CC(=O)OCC(=O)Nc3ccc(C)cc3)coc2c1 | inactive: 18.8% | –
COc1cc(OC)cc(C2=NC3(CCC(C)CC3)NC2=S)c1 (stereo not drawn) | – | inconclusive: 126 µM [inhibitor, single point]
CN(C)CCn1c(C(=O)O)cc2ccccc21 | – | inconclusive: 100 µM [inhibitor, single point]
S=C(NCCc1ccccc1)Nc1ncccn1 | – | inconclusive: 44.7 µM [inhibitor, partial curve]

SMILES | activity change, negative = inhibition | Potency
CNC(=O)c1ccc(C(=O)O)cn1 | – | inconclusive: 1.26 µM [inhibitor, full curve, poor fit]
Cc1ccc(Cn2c(SCCN3CCCCC3)nc3c2c(=O)[nH]c(=O)n3C)cc1 | – | inconclusive: 50.1 µM [inhibitor, partial curve, poor fit]
Cc1ccc(OCC(=O)Nc2cccc(S(=O)(=O)NC3=NCCCCC3)c2)cc1C | inactive: -6.15% | –
COc1ccccc1NS(=O)(=O)c1c(C)nc2sccn2c1=O | – | inconclusive: 31.6 µM [inhibitor, single point]
COc1ccccc1-c1nnc([C@H]2CCN(Cc3ccc(C(=O)O)cc3)C2)o1 | – | inconclusive: 11.2 µM [inhibitor, full curve, poor fit]
CC(C)(C)c1ccc(C(=O)NCCOc2ccccc2)cc1 | inactive: 0% | –
CC1(C(=O)NS(=O)(=O)c2ccc(Cl)cc2)CCN1C(=O)c1ccco1 (stereo not drawn) | – | inconclusive: 35.5 µM [inhibitor, partial curve, poor fit]
CCOC(=O)c1c(C)[nH]c(C(=O)OCC(=O)c2ccc(OC)cc2OC)c1C | – | inconclusive: 126 µM [inhibitor, single point]
O=C(NCc1ccccn1)c1cc(-c2ccccc2Cl)on1 | – | inconclusive: 10 µM [inhibitor, partial curve, poor fit]
COC(=O)[C@@]12C[C@@H](CC(=O)NCC34CC5CC(CC(C5)C3)C4)C(=O)N(Cc3cccc4ccccc34)C1=CCC(C)(C)C2 | inactive: -16.4% | –
O=C(O)C1CCN(/C=C/C(=O)C(F)(F)F)CC1 | – | inconclusive: 39.8 µM [inhibitor, partial curve]
Cc1cc(C)cc(N2CC(O)=C(c3nc4ccccc4c(=O)[nH]3)C2=N)c1 | – | inconclusive: 89.1 µM [inhibitor, partial curve, poor fit]
COc1ccc(/C=C/C(=O)c2ccc(C3CCCCC3)cc2)cc1O | – | inconclusive: 17.8 µM [inhibitor, full curve, poor fit]
CC(=O)Cn1nnc2sc3c(c2c1=O)CCC(C(C)(C)C)C3 (stereo not drawn) | inactive: -1.46% | –
CC(=O)Nc1ccc(NC(=O)Nc2ccc(Cl)cc2)cc1 | – | inconclusive: 50.1 µM [inhibitor, partial curve, poor fit]
N#CC1=C(N)Oc2cc(O)ccc2C1c1ccc(OCc2ccc(Br)cc2)cc1 (stereo not drawn) | – | inconclusive: 25.1 µM [inhibitor, partial curve, poor fit]
Cc1ccc(C)c(OCCCN2CCCC2)c1 | – | inconclusive: 0.708 µM [inhibitor, full curve, poor fit]
c1cc2c3c(cccc3c1)C(N1CCCCCC1)=N2 | – | inconclusive: 2 µM [inhibitor, full curve]
CCN(Cc1ccccc1)C(=O)CSc1ccccc1C(=O)O | inactive: -12.1% | –
CCOC(=O)c1cc(-c2ccc(C)cc2)n(CCC(=O)Nc2nc3c(C)cccc3s2)c1C | – | inconclusive: 56.2 µM [inhibitor, partial curve, poor fit]
O=S(=O)(Nc1nccs1)c1ccc(NCc2cc(Br)cc(Br)c2O)cc1 | inactive: 5.37% | –
O=C1NC(=O)C(c2ccccc2)(c2ccc(Cl)cc2Cl)N1 (stereo not drawn) | – | inconclusive: 100 µM [inhibitor, single point]
CN1C(=O)/C(=C/c2ccc(OCc3cccc(F)c3)cc2)NC1=S | inactive: -2.39% | –

As entered above:
Entry of CC1(C(=O)NS(=O)(=O)c2ccc(Cl)cc2)CCN1C(=O)c1ccco1 (stereo not drawn) under Potency: inconclusive: 35.5 µM [inhibitor, partial curve, poor fit]
Entry of O=C(NCc1ccccn1)c1cc(-c2ccccc2Cl)on1 under Potency: inconclusive: 10 µM [inhibitor, partial curve, poor fit]
Entry of O=C1NC(=O)C(c2ccccc2)(c2ccc(Cl)cc2Cl)N1 (stereo not drawn) under Potency: inconclusive: 100 µM [inhibitor, single point]
Entry of CN1C(=O)/C(=C/c2ccc(OCc3cccc(F)c3)cc2)NC1=S under activity change, negative = inhibition: inactive: -2.39%
Entry of CCOC(=O)c1cc(-c2ccc(C)cc2)n(CCC(=O)Nc2nc3c(C)cccc3s2)c1C under Potency: inconclusive: 56.2 µM [inhibitor, partial curve, poor fit]

(cont.)

SMILES | activity change, negative = inhibition | Potency
O=c1onc(-c2cccs2)n1Cc1ccccc1 | inactive: 0% | –
C=C[C@@H](C1=CC(=O)C(OC)=C(OC)C1=O)c1ccccc1 | – | inconclusive: 22.4 µM [inhibitor, full curve, poor fit]
Cc1ccc2c(c1)c(=O)c1ccccc1n2CCCC(=O)Nc1ccc(C)c(F)c1 | inactive: -23.7% | –
Cc1nc2ccc(C(=O)N/N=C/c3ccccc3O)cc2[nH]1 | inactive: 1.88% | –
O=C(NCc1ccccc1F)c1nc2sccn2c1Br | inactive: -0.79% | –
Cc1ccc(/C=C/C(=O)Nc2sc(C)c(C)c2C(=O)OC(C)C)o1 | – | inconclusive: 3.98 µM [inhibitor, full curve, poor fit]
C=C(C)C(=O)Nc1ccc2nn(-c3ccccc3O)nc2c1 | – | inconclusive: 56.2 µM [inhibitor, partial curve, poor fit]
COc1ccc(CN2CCC3(CC2)CC(O)CCO3)c(OC)c1 (stereo not drawn) | inactive: 12.8% | –
CCCCN(C1CCS(=O)(=O)C1)S(=O)(=O)c1ccc(OC)c(C)c1 (stereo not drawn) | inactive: 9.36% | –
CNC(=O)C(C)N1c2cccc3cccc(c23)S1(=O)=O (stereo not drawn) | inactive: -18.3% | –
O=C(O)C1C2C=CC(O2)C1C(=O)Nc1ccc(S(=O)(=O)N2CCc3ccccc32)cc1 (stereo not drawn) | – | inconclusive: 31.6 µM [inhibitor, partial curve, poor fit]
O=C(O)C1CCN(Cc2oc(CO)cc(=O)c2O)C1 (stereo not drawn) | inactive: 4.38% | –
CN(C)C(=O)CCc1ccc2c3c([nH]c2c1)[C@]1(C)[C@@H](C(=O)N2CCCCC2)C[C@H](CC(=O)NCCC2=CCCCC2)C(=O)N1CC3 | – | inconclusive: 44.7 µM [inhibitor, single point]
O=C1CCc2cc(S(=O)(=O)N(Cc3ccccc3)c3ccccc3)cc3c2N1CCC3 | – | inconclusive: 8.91 µM [inhibitor, full curve, poor fit]
Cc1ccc2c(c1)-c1cc(C)nn1C(c1ccsc1)N2 (stereo not drawn) | inactive: -21.8% | –
NC(=O)c1ccc(OCc2ccccc2)cc1 | inactive: -1.62% | –
Fc1ccc(-[n+]2nc(Nc3ccccc3)sc2-c2c(Cl)cccc2Cl)cc1 | – | inconclusive: 50.1 µM [inhibitor, partial curve, poor fit]
O=S(=O)(N[C@@H]1C[C@H](Cn2cc(C3CC3)nn2)[C@@H](O)[C@H]1O)c1ccccc1 | – | inconclusive: 14.1 µM [inhibitor, full curve]
Cc1ccc2c(c1)N(C(=O)CCC(=O)NCCCN1CCN(C)CC1)CCO2 | inactive: -10.5% | –
CC(C)NC(=O)N(C)C[C@@H]1OCc2cn(nn2)CCCC(=O)N([C@@H](C)CO)C[C@H]1C | – | inconclusive: 2 µM [inhibitor, full curve]
Cc1nnc2n1CCC(N(C)S(=O)(=O)c1cccnc1)CC2 (stereo not drawn) | – | inconclusive: 22.4 µM [inhibitor, full curve]
Cc1ccc(NC(=O)NCc2nc(-c3ccccc3C)oc2C)cc1F | inconclusive: -33.6% [inhibitor] | –
